Positions count from the first letter of the chain named. Results are given in words; binding and its absence hold for the method and conditions named. Binding can be weak; no strength is given.
B1: Toll-1 ectodomain SDM25 (Cys597, Cys635 and Cys637 to Ala) (domain or fragment, UniProt P08953 28-807)
chain: SFGRDACSEMSIDGLCQCAPIMSEYEIICPANAENPTFRLTIQPKDYVQIMCNLTDTTDYQQLPKKLRIGEVDRVQMRRCMLPGHTPIASILDYLGIVSPTTLIFESDNLGMNITRQHLDRLHGLKRFRFTTRRLTHIPANLLTDMRNLSHLELRANIEEMPSHLFDDLENLESIEFGSNKLRQMPRGIFGKMPKLKQLNLWSNQLHNLTKHDFEGATSVLGIDIHDNGIEQLPHDVFAHLTNVTDINLSANLFRSLPQGLFDHNKHLNEVRLMNNRVPLATLPSRLFANQPELQILRLRAELQSLPGDLFEHSTQITNISLGDNLLKTLPATLLEHQVNLLSLDLSNNRLTHLPDSLFAHTTNLTDLRLEDNLLTGISGDIFSNLGNLVTLVMSRNRLRTIDSRAFVSTNGLRHLHLDHNDIDLQQPLLDIMLQTQINSPFGYMHGLLTLNLRNNSIIFVYNDWKNTMLQLRELDLSYNNISSLGYEDLAFLSQNRLHVNMTHNKIRRIALPEDVHLGEGYNNNLVHVDLNDNPLVCDCTILWFIQLVRGVHKPQYSRQFKLRTDRLVASQPNVLEGTPVRQIEPQTLICPLDFSDDPRERKCPRGANAHVRTYDKALVINCHSGNLTHVPRLPNLHKNMQLMELHLENNTLLRLPSANTPGYESVTSLHLAGNNLTSIDVDQLPTNLTHLDISWNHLQMLNATVLGFLNRTMKWRSVKLSGNPWMCDCTAKPLLLFTQDNFERIGDRNEMMCVNAEMPTRMVELSTNDICPAEKGVFI
B2: Toll-1 ectodomain SDM 1 (Cys565 and Cys567 to Ala) (domain or fragment, UniProt P08953 28-807)
chain: B1 chain with C538A, C540A, A570C, A608C, A610C
B3: Toll-1 ectodomain SDM 2 (Cys597 to Ala) (domain or fragment, UniProt P08953 28-807)
chain: B1 chain with A608C, A610C
B4: Toll-1 ectodomain SDM3 (Cys618 to Ala) (domain or fragment, UniProt P08953 28-807)
chain: B1 chain with A570C, C591A, A608C, A610C
B5: Toll-1 ectodomain SDM 4 (Cys631 to Ala) (domain or fragment, UniProt P08953 28-807)
chain: B1 chain with A570C, C604A, A608C, A610C
B6: Toll-1 ectodomain SDM 5 (Cys635 and Cys637 to Ala) (domain or fragment, UniProt P08953 28-807)
chain: B1 chain with A570C
B7: Toll-1 ectodomain SDM125 (Cys565, Cys567, Cys597, Cys635 and Cys637 to Ala) (domain or fragment, UniProt P08953 28-807)
chain: B1 chain with C538A, C540A

Biological target: Toll-9 ectodomain, wild type (etoll-9) (D. melanogaster)
Assay: two-hybrid

Binder | binding
B1 | binds
B2 | no binding
B3 | no binding
B4 | no binding
B5 | no binding
B6 | no binding
B7 | no binding

— paper doi:10.1101/2021.01.18.427181
